Results taken from the supplement of paper PMC10849652.
Some of the results follow.

By UniProt entry, the sequences of proteins in these tests, tags left out. Where a name states a change or a piece, a line headed by the entry shows the natural chain unless it says otherwise.
UniProt Q9Y4G2: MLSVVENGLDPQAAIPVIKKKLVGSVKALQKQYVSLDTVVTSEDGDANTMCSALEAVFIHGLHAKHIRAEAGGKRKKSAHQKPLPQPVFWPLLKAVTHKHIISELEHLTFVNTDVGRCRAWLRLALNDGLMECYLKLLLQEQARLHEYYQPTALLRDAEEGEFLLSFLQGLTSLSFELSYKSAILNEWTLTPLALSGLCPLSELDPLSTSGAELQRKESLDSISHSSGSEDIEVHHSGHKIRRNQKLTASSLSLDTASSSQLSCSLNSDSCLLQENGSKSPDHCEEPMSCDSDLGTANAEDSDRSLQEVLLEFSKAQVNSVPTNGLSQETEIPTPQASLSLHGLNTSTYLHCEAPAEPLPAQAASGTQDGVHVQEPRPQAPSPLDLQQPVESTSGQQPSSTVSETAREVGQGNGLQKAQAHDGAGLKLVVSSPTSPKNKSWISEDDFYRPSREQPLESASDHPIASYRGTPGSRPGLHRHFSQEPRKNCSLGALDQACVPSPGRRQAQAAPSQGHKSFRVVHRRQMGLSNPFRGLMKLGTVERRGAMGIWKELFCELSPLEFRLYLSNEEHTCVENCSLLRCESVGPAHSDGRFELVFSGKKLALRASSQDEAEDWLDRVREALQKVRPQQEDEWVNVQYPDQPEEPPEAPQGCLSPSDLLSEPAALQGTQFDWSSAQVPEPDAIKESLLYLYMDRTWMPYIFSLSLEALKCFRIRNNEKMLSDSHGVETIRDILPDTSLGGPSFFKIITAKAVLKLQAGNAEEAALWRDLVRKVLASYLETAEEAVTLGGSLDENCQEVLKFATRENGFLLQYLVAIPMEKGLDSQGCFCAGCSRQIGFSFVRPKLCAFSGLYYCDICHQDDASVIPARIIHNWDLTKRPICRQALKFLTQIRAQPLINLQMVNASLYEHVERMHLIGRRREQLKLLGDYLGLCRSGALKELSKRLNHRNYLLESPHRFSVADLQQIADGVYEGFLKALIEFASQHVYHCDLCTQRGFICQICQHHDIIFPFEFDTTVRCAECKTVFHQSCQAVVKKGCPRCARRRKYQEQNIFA
UniProt Q6T4P5: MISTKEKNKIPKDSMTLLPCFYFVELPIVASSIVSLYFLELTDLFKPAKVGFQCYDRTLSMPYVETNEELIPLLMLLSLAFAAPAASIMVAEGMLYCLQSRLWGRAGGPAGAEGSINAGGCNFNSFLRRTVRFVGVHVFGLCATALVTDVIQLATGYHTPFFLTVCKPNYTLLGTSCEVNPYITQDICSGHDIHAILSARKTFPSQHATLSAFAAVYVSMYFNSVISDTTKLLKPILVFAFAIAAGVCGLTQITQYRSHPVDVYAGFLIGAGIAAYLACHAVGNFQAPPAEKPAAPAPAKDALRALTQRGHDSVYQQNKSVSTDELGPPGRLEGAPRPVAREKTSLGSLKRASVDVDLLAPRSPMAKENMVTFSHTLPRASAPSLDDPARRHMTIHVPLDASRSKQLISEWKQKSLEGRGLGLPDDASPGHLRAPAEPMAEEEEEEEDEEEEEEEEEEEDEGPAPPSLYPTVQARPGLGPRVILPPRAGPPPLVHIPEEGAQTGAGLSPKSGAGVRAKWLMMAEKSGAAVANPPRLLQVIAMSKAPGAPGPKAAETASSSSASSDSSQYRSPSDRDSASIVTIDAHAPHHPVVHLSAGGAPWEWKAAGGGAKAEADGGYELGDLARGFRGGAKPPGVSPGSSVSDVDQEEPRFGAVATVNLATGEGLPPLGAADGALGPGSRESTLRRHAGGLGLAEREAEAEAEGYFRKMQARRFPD
UniProt Q8WVV4: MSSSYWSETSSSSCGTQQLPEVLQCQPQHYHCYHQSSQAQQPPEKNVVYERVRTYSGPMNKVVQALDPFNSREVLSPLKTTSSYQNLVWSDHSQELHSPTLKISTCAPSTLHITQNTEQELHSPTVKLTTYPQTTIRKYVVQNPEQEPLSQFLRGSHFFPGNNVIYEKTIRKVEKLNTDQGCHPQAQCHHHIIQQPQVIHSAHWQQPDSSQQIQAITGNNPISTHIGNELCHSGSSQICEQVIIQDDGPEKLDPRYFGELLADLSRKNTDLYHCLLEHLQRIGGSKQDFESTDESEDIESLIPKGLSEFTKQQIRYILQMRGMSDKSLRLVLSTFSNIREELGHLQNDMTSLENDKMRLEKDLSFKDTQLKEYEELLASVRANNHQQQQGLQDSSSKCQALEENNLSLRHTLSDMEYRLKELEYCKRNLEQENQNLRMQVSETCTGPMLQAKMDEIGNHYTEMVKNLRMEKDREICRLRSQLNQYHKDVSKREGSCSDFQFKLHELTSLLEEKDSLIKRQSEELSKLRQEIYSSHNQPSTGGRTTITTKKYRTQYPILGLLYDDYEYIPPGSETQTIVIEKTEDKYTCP
UniProt O43157, whole entry, looked up: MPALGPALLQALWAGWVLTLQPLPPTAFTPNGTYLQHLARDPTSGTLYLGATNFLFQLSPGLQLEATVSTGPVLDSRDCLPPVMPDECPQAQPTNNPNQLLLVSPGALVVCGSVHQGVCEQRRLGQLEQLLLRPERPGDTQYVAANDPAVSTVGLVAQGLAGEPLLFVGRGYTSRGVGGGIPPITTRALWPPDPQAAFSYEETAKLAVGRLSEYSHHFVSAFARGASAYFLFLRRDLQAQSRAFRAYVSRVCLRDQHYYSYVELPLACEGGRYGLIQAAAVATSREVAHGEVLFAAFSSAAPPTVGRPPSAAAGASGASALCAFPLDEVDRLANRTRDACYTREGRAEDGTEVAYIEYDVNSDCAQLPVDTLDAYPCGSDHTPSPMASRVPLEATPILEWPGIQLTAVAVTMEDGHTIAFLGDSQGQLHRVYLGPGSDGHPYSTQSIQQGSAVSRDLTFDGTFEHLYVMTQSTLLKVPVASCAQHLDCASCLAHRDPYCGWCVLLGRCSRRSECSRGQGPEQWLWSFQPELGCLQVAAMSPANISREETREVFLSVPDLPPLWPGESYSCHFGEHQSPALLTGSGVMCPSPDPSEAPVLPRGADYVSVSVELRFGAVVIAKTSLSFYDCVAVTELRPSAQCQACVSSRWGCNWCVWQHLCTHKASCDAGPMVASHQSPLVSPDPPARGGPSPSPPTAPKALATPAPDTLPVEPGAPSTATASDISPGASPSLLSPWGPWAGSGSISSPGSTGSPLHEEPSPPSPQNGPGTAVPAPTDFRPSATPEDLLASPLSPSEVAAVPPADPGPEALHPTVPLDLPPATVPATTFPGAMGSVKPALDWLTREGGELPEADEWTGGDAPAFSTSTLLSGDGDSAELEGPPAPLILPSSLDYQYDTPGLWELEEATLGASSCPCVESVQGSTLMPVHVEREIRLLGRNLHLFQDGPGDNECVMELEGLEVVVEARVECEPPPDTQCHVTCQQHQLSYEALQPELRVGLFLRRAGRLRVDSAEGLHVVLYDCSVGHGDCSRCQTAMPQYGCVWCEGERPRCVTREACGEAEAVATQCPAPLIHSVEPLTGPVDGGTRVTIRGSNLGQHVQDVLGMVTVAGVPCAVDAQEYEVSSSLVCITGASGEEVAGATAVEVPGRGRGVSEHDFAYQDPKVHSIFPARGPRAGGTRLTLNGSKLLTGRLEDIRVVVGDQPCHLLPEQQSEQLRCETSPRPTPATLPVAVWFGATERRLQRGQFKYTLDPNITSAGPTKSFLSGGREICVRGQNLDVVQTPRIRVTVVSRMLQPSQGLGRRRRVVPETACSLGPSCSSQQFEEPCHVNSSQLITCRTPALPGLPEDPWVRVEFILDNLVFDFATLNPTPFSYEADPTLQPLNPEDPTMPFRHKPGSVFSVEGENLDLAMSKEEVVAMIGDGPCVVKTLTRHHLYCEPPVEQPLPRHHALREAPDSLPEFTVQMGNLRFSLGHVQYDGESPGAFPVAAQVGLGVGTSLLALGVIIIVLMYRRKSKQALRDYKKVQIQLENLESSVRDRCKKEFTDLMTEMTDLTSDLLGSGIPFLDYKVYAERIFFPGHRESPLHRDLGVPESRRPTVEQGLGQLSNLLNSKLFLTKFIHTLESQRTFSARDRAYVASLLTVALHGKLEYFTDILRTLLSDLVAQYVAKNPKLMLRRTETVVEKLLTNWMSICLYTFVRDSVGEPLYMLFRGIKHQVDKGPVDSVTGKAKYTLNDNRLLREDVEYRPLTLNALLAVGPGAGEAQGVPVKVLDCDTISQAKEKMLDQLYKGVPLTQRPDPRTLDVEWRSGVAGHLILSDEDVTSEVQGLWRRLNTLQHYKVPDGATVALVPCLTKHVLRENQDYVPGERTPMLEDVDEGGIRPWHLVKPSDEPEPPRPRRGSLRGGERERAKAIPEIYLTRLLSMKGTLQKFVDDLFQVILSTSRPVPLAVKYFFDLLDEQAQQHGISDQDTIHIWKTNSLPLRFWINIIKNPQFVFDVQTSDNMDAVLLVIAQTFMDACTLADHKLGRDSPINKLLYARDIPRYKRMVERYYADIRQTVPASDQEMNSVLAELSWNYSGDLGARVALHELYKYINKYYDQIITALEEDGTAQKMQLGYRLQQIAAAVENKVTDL
UniProt P62937, whole entry, looked up: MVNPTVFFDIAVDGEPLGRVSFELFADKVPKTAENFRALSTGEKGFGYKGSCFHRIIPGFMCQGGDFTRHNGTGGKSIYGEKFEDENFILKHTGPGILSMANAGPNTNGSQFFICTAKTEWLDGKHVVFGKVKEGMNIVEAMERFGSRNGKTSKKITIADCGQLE
UniProt P11086: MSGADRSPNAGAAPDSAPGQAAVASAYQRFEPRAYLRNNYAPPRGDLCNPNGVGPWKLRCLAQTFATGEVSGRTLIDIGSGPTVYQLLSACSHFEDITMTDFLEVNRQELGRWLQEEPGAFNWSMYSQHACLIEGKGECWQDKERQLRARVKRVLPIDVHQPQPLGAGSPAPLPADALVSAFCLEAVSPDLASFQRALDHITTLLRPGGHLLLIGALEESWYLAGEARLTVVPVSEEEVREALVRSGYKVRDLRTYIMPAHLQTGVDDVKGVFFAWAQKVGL
UniProt Q9HCU8: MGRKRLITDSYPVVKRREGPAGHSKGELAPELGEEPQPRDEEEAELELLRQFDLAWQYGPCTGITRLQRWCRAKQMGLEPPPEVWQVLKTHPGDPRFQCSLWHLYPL
UniProt Q9H237: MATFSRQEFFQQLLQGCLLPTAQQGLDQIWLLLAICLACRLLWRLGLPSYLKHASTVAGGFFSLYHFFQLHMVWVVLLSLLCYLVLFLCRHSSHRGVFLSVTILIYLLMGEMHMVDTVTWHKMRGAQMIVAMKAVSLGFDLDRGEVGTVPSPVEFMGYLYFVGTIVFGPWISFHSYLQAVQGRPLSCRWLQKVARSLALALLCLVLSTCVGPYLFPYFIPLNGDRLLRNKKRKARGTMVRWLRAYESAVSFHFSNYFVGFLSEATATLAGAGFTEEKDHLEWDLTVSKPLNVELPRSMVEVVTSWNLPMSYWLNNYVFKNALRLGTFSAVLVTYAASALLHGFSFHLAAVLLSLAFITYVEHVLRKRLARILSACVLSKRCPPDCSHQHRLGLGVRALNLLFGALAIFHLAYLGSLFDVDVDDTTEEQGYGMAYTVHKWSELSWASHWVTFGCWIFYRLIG
UniProt Q86W92: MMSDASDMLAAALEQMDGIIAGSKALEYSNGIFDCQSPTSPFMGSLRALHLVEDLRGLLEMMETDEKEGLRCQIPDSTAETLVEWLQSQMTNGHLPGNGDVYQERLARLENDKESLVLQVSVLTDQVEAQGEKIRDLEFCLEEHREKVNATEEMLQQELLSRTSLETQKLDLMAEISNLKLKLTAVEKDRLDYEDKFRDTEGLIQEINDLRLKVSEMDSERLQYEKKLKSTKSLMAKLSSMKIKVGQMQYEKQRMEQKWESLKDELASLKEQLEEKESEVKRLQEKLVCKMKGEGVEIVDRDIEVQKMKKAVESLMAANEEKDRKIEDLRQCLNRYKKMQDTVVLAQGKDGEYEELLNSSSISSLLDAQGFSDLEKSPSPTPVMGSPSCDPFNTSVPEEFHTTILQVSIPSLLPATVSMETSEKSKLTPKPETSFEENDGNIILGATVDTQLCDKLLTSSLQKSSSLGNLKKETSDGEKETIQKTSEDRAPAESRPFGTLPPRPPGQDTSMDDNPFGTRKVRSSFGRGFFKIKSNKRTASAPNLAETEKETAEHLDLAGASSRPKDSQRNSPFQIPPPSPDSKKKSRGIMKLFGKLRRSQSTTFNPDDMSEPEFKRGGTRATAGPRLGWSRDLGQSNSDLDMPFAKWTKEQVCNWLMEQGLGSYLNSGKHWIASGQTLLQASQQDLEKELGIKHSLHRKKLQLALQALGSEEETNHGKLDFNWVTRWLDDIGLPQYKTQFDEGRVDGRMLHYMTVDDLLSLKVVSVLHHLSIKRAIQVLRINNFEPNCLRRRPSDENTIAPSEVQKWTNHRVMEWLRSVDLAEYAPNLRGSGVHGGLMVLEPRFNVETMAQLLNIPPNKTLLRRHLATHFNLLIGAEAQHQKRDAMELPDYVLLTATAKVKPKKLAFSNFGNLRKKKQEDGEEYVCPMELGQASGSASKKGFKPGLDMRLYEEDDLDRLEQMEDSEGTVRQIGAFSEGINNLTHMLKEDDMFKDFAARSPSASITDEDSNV

Experiments:
Assay in all cases: log2 fold change, soluble protein after heating vs DMSO (PISA); higher = thermal stabilisation; K562 lysate, 10 uM; active = over 0.2 and 3.5 SD of the protein, either way, in both replicates (recomputed)
alvocidib = compound: CN1CC[C@H](c2c(O)cc(O)c3c(=O)cc(-c4ccccc4Cl)oc23)[C@H](O)C1 [alvocidib]
How it was run: (§1)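 A 30 min treatment with 10 μM compound was applied to crude K562 extract at 1 mg/mL protein in PBS pH 7.4 with 1 mM MgCl2. Heating for 3 min spanned 48°C-58°C, after which aliquots were pooled, adjusted to 0.5% NP-40 at 4°C and spun at 21,000xg for 90 min. TMTpro 16plex LC-MS/MS of the supernatant, with channel sums equalised, gave values recorded as log-two fold change in thermal stability against solvent controls, from duplicates.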

Tubastatin A = compound: CN1CCc2c(c3ccccc3n2Cc2ccc(C(=O)NO)cc2)C1 [Tubastatin A]
How it was run: as §1

defactinib = compound: CNC(=O)c1ccc(Nc2ncc(C(F)(F)F)c(NCc3nccnc3N(C)S(C)(=O)=O)n2)cc1 [defactinib]
How it was run: as §1

[1] = compound: CNc1nc(-c2ccc3c(N)n[nH]c3c2)cc(N2C[C@@H](C(=O)NC3CCCCC3)CC[C@H]2C)n1
How it was run: as §1

encorafenib = compound: COC(=O)N[C@@H](C)CNc1nccc(-c2cn(C(C)C)nc2-c2cc(Cl)cc(NS(C)(=O)=O)c2F)n1 [encorafenib]
How it was run: as §1

[2] = compound: COC(=O)[C@H](CCSC)NC(=O)C1=C(C=C(C=C1)NC[C@H](CS)N)C2=CC=CC=C2
How it was run: as §1

alisertib = compound: COc1cc(Nc2ncc3c(n2)-c2ccc(Cl)cc2C(c2c(F)cccc2OC)=NC3)ccc1C(=O)O [alisertib]
How it was run: as §1

gefitinib = compound: COc1cc2ncnc(Nc3ccc(F)c(Cl)c3)c2cc1OCCCN1CCOCC1 [gefitinib]
How it was run: as §1

[3] = compound: CNC(=O)C1=CC=CC=C1NC2=NC(=NC=C2Cl)NC3=C(C=C(C=C3)N4CCOCC4)OC
How it was run: as §1

[4] = compound: COc1cc2nc(-c3cc(F)ccc3O)nc(N[C@@H]3CNC[C@H]3C(C)(C)O)c2cc1OC
How it was run: as §1

Measured: log2 fold change

PLEKHG4 (UniProt Q58EX7)
inactive: alvocidib -0.016 | Tubastatin A -0.015 | defactinib 0.017 | [1] -0.085 | encorafenib 0.1 | [2] -0.058 | alisertib 0.124 | gefitinib 0.206

POTEKP (UniProt Q9BYX7)
inactive: Tubastatin A -0.315 | [3] 0.233 | [1] 1.53 | alisertib -0.119 | [4] 1.68 | gefitinib 0.872

POLK (UniProt Q9UBT6)
inactive: alisertib 0 | [4] 0.363 | gefitinib 0.014

PLEKHM1 (UniProt Q9Y4G2)
inactive: Tubastatin A 0.061 | [3] -0.005 | defactinib -0.021 | encorafenib 0.069 | [2] 0.018

PLPPR3 isoform 3 (UniProt Q6T4P5)
inactive: Tubastatin A -0.028 | [1] -0.049

POC1A (UniProt Q8NBT0)
inactive: alvocidib -0.086 | defactinib 0.009 | encorafenib 0.23 | [2] -0.358 | alisertib 0 | [4] -0.001 | gefitinib 0.002

POLR2M (UniProt Q6EEV4)
inactive: alvocidib 0.085 | [3] 0.075 | defactinib 0.125 | [1] 0.108 | encorafenib -0.001 | [2] -0.081 | [4] 0.038

POF1B isoform 1 (UniProt Q8WVV4)
inactive: alvocidib -0.221 | [1] -0.237

POLR2F (UniProt U3KPV3)
inactive: [1] -0.059 | encorafenib 0.177 | [2] -0.182

PLXNB1 (UniProt O43157)
inactive: Tubastatin A -0.063 | [3] -0.037 | [1] 0.079 | alisertib -0.07 | gefitinib -0.026

POLR2J (UniProt P52435)
inactive: Tubastatin A -0.028 | [3] 0.013 | [1] 0 | encorafenib -0.076 | [2] 0.013 | alisertib 0.076 | [4] -0.012 | gefitinib -0.062

PLP2 (UniProt Q04941)
inactive: alvocidib -0.033 | [3] -0.181 | defactinib 0.008 | [1] -0.355 | encorafenib -0.01 | [2] -0.004 | alisertib -0.105 | [4] -0.006 | gefitinib -0.174

PPHLN1 (UniProt Q8NEY8)
inactive: alvocidib -0.036 | [3] 0.059 | defactinib -0.026 | encorafenib 0.053 | [2] 0.023 | alisertib -0.037 | [4] 0.067 | gefitinib 0

PMS2CL (UniProt Q68D20)
inactive: Tubastatin A 0.097 | [4] 0.108

POLR2K (UniProt P53803)
inactive: alvocidib 0.021 | Tubastatin A 0.127 | defactinib 0.081 | [1] 0.13 | encorafenib -0.062 | [2] -0.115

POLG2 (UniProt J3KRM2)
inactive: [3] -0.081 | alisertib -0.138 | [4] 0.114 | gefitinib 0.021

PPHLN1 isoform 3 (UniProt Q8NEY8)
inactive: Tubastatin A -0.021 | defactinib 0.019

PPIA isoform 2 (UniProt P62937)
inactive: alisertib 0.115 | gefitinib 0.207

PNMT (UniProt P11086)
inactive: Tubastatin A 0.118 | [3] 0.048 | defactinib -0.257 | [4] -0.022

PLOD2 isoform 2 (UniProt O00469)
inactive: defactinib 0.164 | [1] -0.269 | encorafenib 0.454 | [2] -0.73

PLEKHH2 (UniProt E5RGK1)
inactive: alvocidib 0.007 | defactinib -0.104 | [1] 0.052 | encorafenib 0.043 | [2] -0.107 | [4] -0.025

PPFIBP2 (UniProt Q8ND30)
inactive: alvocidib 0.091 | encorafenib 0.146 | [2] 0.051

POMT1 (UniProt Q9Y6A1)
inactive: [1] 0.073 | [4] 0.177

POLD4 (UniProt Q9HCU8)
inactive: Tubastatin A 0.037 | [3] 0.175 | defactinib -0.047 | [1] 0.044 | encorafenib -0.033 | [2] -0.047 | alisertib 0.013 | [4] 0.047 | gefitinib 0.038

PNMA8A (UniProt Q86V59)
inactive: Tubastatin A -0.071 | [3] 0.002 | [1] -0.009 | encorafenib -0.023 | [2] -0.164 | alisertib -0.003 | [4] 0.083 | gefitinib 0.074

PLSCR3 (UniProt Q9NRY6)
inactive: alvocidib -0.043 | defactinib 0.037 | [1] 0.059 | encorafenib -0.098 | [2] -0.27 | [4] -0.033

POC1B (UniProt Q8TC44)
inactive: Tubastatin A -0.224 | [3] -0.098 | defactinib -0.037 | [1] -0.295 | encorafenib -0.086 | [2] -0.393

PML isoform 11 (UniProt P29590)
inactive: alvocidib 0.043 | defactinib -0.132 | [1] 0.183 | encorafenib 0.089 | [2] -0.058

PORCN (UniProt Q9H237)
inactive: alisertib -0.479 | gefitinib 0.385

POLI (UniProt Q9UNA4)
inactive: alisertib -0.016 | gefitinib -0.141

PNPLA4 (UniProt P41247)
inactive: alvocidib 0.074 | Tubastatin A 0.147 | defactinib -0.148 | [1] -0.17 | encorafenib -0.076 | [2] 0.125

PPARGC1B (UniProt Q86YN6)
inactive: Tubastatin A -0.074 | [3] -0.017

PM20D2 (UniProt Q8IYS1)
inactive: Tubastatin A 0.113 | defactinib 0.034 | encorafenib 0.215 | [2] -0.177 | [4] -0.024

POM121C (UniProt A8CG34)
inactive: alvocidib -0.089 | Tubastatin A 0.124 | [3] 0.069 | [4] -0.076

PPFIBP1 (UniProt Q86W92)
inactive: encorafenib 0.133 | [2] 0.166

POGZ (UniProt Q7Z3K3)
inactive: alvocidib -0.171 | Tubastatin A 0.228 | defactinib -0.004 | [1] -0.008 | encorafenib -0.236 | [2] 0.151 | alisertib 0.041 | [4] 0.091 | gefitinib 0.027

Quoted from the results shown (2 entries):
PM20D2 (UniProt Q8IYS1)
inactive: Tubastatin A 0.113 | defactinib 0.034 | encorafenib 0.215 | [2] -0.177 | [4] -0.024

POM121C (UniProt A8CG34)
inactive: alvocidib -0.089 | Tubastatin A 0.124 | [3] 0.069 | [4] -0.076

Following part.

PLXND1 (UniProt Q9Y4D7)
inactive: Tubastatin A 0.111 | [3] 0.015 | [1] -0.123 | alisertib 0.046 | gefitinib 0.313

PLXNA3 (UniProt P51805)
inactive: alvocidib -0.29 | Tubastatin A 0.09 | [3] -0.078 | defactinib 0.068 | encorafenib 0.113 | [2] 0.068 | [4] 0.155

PLGRKT (UniProt Q9HBL7)
inactive: Tubastatin A 0.072 | [3] 0.004 | defactinib -0.038 | [1] 0.196 | encorafenib 0 | [2] -0.06 | alisertib -0.056 | gefitinib -0.108
